Source: PubChem BioAssay AID651647 (Sanford-Burnham Center for Chemical Genomics, 2012)
This is one part of the list. Some salts or complexes appear as unconnected parts, following the source record.

Assay: MT1-MMP activation inhibitors, cellular reporter – HT1080 RFP-PRO-GFP cells, GFP/RFP fluorescence, primary screen (AID 651647)
Conditions: GFP/RFP ratio fluorescence, overnight, RFP expression control read, at 20 µM
Procedure, shortened: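 Assay system: HT1080 cells carrying an RFP-PRO-GFP reporter | Dosing: Single dose of 20 µM compound, 1% DMSO final | Incubation: Cells overnight before dosing, compound overnight, 37 °C, 5% CO2 | Evaluation: GFP/RFP fluorescence ratio | Control set: DMSO and RFP-L50D-GFP cell wells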

SMILES | RFP signal change
O=[N+]([O-])c1cc([N+](=O)[O-])c(C(F)(F)F)c([N+](=O)[O-])c1O | 4.75%
Cc1ccccc1NP(C)(=O)Nc1ccccc1C | 3.41%
CP(=O)(Nc1ccc2c(c1)OCCO2)Oc1ccccc1 (stereo not drawn) | 3%
c1nnnn1CCn1cnnn1 | -0.995%
CCOP(C)(=S)SCC(=O)NC(C)(CC)C(=O)O (stereo not drawn) | 2.48%
CC(C)C(=O)NC(Sc1ccccc1)C(Cl)(Cl)Cl (stereo not drawn) | -0.567%
O=P(Nc1nccs1)(c1ccccc1)c1ccccc1 | 7.49%
CP(=O)(Nc1ccc(SC(F)(F)F)cc1)Oc1ccc(F)cc1 (stereo not drawn) | -3.5%
O=C(OC1CN2CCC1CC2)c1cccc(Cl)c1 (stereo not drawn) | 3.73%
Cc1c(C(c2ccc3c(c2)OCO3)c2c(C)n(C)n(-c3ccccc3)c2=O)c(=O)n(-c2ccccc2)n1C.O=[N+]([O-])c1cc([N+](=O)[O-])c(O)c([N+](=O)[O-])c1 | 7.68%
Nc1ccc([As](=O)(O)c2ccc([N+](=O)[O-])cc2)cc1 | 2.27%
C(Cc1nn[nH]n1)Cc1nn[nH]n1 | 1.94%
O=[As](O)(c1ccccc1)c1ccc(O)cc1 | 0.528%
Cc1cc(-c2cccc3ccccc23)c(C)cn1.O=[N+]([O-])c1cc([N+](=O)[O-])c(O)c([N+](=O)[O-])c1 | -8.44%
O=[N+]([O-])c1cc([N+](=O)[O-])c(NCC2CCS(=O)(=O)C2)c([N+](=O)[O-])c1 (stereo not drawn) | -9.62%
O=[N+]([O-])c1ccc(O)c(/C=N/Nc2ccc([N+](=O)[O-])cc2[N+](=O)[O-])c1 | -10.9%
CC(=O)NC(SC(=S)N(C)C)C(Cl)(Cl)Cl (stereo not drawn) | 2.14%
O=[N+]([O-])c1ccc(OP2(=O)COCCO2)cc1 (stereo not drawn) | 2.08%
O=[N+]([O-])c1ncn(CCn2cnc([N+](=O)[O-])n2)n1 | 5.07%
COc1ccc(NP(C)(=O)Oc2ccccc2OC)cc1 (stereo not drawn) | 1.07%
CN(C)CCOC(=O)C(O)(c1ccccc1)C1CCCCC1 (stereo not drawn) | 1.74%
O=P(Nc1nc2ccccc2s1)(c1ccccc1)c1ccccc1 | 4.24%
C[C@H]1OP(=O)(Oc2ccccc2)[C@H](O)[C@H](O)[C@H]1N=[N+]=[N-] (stereo partly drawn) | -0.233%

SMILES | RFP signal change
O=P(Nc1ccccn1)(c1ccc(Br)cc1)c1ccc(Br)cc1 | -25.9%
CN(C)C1(CNC(=O)c2ccc(Cl)c(S(N)(=O)=O)c2)CCCCC1 | -0.126%
COc1ccc(OP(C)(=O)Nc2cccc(Br)c2)cc1 (stereo not drawn) | 5.85%
COc1ccc(N)c([N+](=O)[O-])c1[N+](=O)[O-] | -4.11%
Cc1ccccc1OP(=O)(Nc1ccccn1)Oc1ccccc1C | -3.93%
CC(NC(=O)COC(=O)C(O)(c1ccccc1)c1ccccc1)c1ccccc1 (stereo not drawn) | -2.16%
CN(C)C(=O)Oc1noc2ccccc12 | 0.533%
CCCCCOc1ccc(NP(C)(=O)Oc2ccc(Cl)cc2Cl)cc1 (stereo not drawn) | 1.89%
O=c1c2cc([N+](=O)[O-])ccc2[nH]c2c([N+](=O)[O-])cc([N+](=O)[O-])cc12 | -53.8%
O=[N+]([O-])c1cc([N+](=O)[O-])c(OC2CCCCC2O)c([N+](=O)[O-])c1 (stereo not drawn) | -6.82%
CP(=O)(Nc1ccccc1)Oc1ccc(F)cc1 (stereo not drawn) | -0.854%
O=C(OC1CN2CCC1CC2)c1ccccc1 (stereo not drawn) | 0.148%
CCN(CC)CCCOC(=O)C(O)(c1ccccc1)C1CCCCC1 (stereo not drawn) | 0.812%
CCC(=O)N1C2C3N(C(=O)CC)C1C1N(C(=O)CC)C(C(N1C(=O)CC)N3C(=O)CC)N2C(=O)CC | 2.55%
Cc1c([N+](=O)[O-])cc([N+](=O)[O-])c(Br)c1[N+](=O)[O-] | -2.6%
COC(=O)c1cc2c(s1)N=C(c1ccccc1)N(C)P2(=O)N1CCOCC1 (stereo not drawn) | 8.48%
CC(=O)NC(SC(=S)N(CC(C)C)CC(C)C)C(Cl)(Cl)Cl (stereo not drawn) | 3.43%
Cc1ccc(OP(=O)(Nc2ccccn2)Oc2ccc(C)cc2)cc1 | -13.2%
COc1ccc(OP(C)(=O)Nc2ccc(SC(F)(F)F)cc2)cc1 (stereo not drawn) | -6.79%
O=P1(N(CCCl)CCCl)OCCC2CCCCN21 (stereo not drawn) | 3.37%
CCOC(=O)c1ccc(NP(C)(=O)Oc2ccc(F)cc2)cc1 (stereo not drawn) | 4.51%
c1ccc(-c2nn[nH]n2)c(-c2nn[nH]n2)c1 | 1.47%
Cc1ccc(NP(=O)(Oc2cccc(C)c2)Oc2cccc(C)c2)nc1 | 0.275%

SMILES | RFP signal change
CCN(CC)CCCNc1ccccc1[N+](=O)[O-].O=[N+]([O-])c1cc([N+](=O)[O-])c(O)c([N+](=O)[O-])c1 | 5.52%
CCNC(=S)/N=C(\N)N[N+](=O)[O-] | 1.14%
O=C(NC1CCS(=O)(=O)C1)NP(=S)(Oc1ccccc1)Oc1ccccc1 (stereo not drawn) | -1.23%
COc1ccc2c(c1O)-c1c(O)c(OC)cc3c1[C@H](C2)[N+](C)(C)CC3.O=[N+]([O-])c1cc([N+](=O)[O-])c([O-])c([N+](=O)[O-])c1[O-] | 8.36%
CC(=O)Nc1ccc([As](=O)(O)O)c(O)c1 | 2.46%
CC(=O)Nc1ccc(Oc2c([N+](=O)[O-])cc([N+](=O)[O-])cc2[N+](=O)[O-])cc1 | 3.75%
O=C(OCCN1CCN(CCOCc2ccccc2)CC1)C(O)(c1ccccc1)c1ccccc1 | -1.03%
C[C@@H]1C=CCP(=O)(Oc2ccccc2)O1 (stereo partly drawn) | 4.03%
C[C@H]1OP(=O)(Oc2ccccc2)C[C@@H]2O[C@@H]21 (stereo partly drawn) | 4.33%
N#C/C(=C\c1ccc(N(CCBr)CCBr)cc1)C(N)=O | 4.89%
CC(=O)c1ccc(N2CC2c2ccncc2)cc1 (stereo not drawn) | -3.26%
COC(=O)C1(C)COP(=O)(NCc2ccccc2)OC1 (stereo not drawn) | 5.05%
CC(C)(C)C(=O)NC(Sc1ccccc1)C(Cl)(Cl)Cl (stereo not drawn) | -4.37%
CC(C)c1ccc(OP(C)(=O)Nc2ccc(SC(F)(F)F)cc2)cc1 (stereo not drawn) | -3.71%
CCc1cc(O)c([N+](=O)[O-])c(C)c1[N+](=O)[O-] | -0.129%
CP(=O)(Nc1ccccc1F)Oc1ccccc1 (stereo not drawn) | 8.29%
O=P1(Nc2nc3ccc(Cl)cc3s2)COc2ccccc2O1 (stereo not drawn) | 1.32%
O=[N+]([O-])c1cc([N+](=O)[O-])c(Nc2ccc(Cl)cc2)c([N+](=O)[O-])c1 | -17%
CCOc1ccc(C2=NCC(CBr)S2)cc1 (stereo not drawn) | -2.93%
CCc1ccc(OP(C)(=O)O)cc1 | -1.88%
O=[N+]([O-])C1C(O)C(O)C([N+](=O)[O-])C(O)C1O (stereo not drawn) | 4.47%
CP(=O)(Nc1ccccn1)Oc1ccccc1 (stereo not drawn) | 2.8%
